# Results published in the supplement of paper PMC10849652.
# Chains of the proteins cited; added tags and fusions are not shown. Lines headed by an entry give the natural chain unless they say otherwise; changes in a name come on top.
# UniProt Q96EU6: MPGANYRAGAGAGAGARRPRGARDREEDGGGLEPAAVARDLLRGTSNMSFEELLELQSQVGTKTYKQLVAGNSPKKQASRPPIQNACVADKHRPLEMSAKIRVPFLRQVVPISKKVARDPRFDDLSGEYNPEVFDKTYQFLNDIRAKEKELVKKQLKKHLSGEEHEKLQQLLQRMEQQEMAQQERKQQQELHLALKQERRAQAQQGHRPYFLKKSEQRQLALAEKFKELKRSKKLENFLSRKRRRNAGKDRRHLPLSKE
# UniProt O14521: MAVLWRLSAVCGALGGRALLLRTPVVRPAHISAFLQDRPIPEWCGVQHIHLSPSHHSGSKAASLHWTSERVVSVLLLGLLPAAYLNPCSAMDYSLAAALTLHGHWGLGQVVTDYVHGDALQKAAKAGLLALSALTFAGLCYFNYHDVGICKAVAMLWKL
# UniProt Q8WXD2: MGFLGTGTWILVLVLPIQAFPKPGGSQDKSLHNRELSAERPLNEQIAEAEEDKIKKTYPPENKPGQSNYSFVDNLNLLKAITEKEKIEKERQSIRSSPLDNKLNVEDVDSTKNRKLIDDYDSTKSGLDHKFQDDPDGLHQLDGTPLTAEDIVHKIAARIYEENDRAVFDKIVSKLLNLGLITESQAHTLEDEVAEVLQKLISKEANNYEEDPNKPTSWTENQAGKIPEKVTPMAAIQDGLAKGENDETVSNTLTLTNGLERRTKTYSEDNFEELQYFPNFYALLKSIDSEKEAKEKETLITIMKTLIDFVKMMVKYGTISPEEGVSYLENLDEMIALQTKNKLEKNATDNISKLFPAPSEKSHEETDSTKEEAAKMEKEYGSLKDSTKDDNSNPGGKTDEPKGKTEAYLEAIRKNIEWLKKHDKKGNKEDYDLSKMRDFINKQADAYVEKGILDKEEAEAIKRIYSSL
# UniProt Q8IZE3: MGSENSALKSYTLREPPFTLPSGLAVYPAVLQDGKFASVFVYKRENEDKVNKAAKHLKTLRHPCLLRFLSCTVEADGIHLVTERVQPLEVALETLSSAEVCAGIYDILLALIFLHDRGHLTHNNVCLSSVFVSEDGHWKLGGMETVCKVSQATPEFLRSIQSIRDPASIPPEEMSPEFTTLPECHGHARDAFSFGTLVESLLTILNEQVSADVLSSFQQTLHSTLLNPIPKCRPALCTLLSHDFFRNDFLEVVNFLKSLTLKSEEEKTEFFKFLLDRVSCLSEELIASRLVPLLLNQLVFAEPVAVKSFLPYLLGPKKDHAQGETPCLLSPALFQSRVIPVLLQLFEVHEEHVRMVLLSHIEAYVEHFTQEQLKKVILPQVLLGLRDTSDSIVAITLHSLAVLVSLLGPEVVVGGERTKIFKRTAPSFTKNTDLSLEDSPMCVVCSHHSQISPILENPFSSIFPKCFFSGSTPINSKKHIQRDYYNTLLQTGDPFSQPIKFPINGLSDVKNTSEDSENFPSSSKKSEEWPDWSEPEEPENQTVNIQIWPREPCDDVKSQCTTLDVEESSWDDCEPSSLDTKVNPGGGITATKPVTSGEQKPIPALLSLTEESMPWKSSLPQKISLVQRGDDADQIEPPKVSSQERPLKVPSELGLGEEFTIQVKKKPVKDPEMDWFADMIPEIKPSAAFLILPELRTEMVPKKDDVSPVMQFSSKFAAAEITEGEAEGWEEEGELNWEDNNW
# UniProt O15127: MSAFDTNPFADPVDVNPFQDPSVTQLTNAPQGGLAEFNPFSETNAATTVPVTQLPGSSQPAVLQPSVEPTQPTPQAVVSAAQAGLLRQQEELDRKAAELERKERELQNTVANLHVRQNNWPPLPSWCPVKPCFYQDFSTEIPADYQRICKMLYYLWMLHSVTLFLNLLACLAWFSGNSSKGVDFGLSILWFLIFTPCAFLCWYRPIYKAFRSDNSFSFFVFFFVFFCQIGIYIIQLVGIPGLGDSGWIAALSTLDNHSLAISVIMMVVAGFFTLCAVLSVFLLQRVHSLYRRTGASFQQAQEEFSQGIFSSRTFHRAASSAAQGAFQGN
# UniProt Q9BY42: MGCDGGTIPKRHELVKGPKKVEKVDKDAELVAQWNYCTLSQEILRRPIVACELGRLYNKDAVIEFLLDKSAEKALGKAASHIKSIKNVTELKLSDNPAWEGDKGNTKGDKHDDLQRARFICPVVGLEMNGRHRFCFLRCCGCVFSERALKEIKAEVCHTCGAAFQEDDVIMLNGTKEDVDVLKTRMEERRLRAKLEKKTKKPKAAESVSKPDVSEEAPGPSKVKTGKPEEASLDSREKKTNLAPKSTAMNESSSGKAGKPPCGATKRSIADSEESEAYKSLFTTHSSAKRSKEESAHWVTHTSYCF
# UniProt Q01196, whole entry, looked up: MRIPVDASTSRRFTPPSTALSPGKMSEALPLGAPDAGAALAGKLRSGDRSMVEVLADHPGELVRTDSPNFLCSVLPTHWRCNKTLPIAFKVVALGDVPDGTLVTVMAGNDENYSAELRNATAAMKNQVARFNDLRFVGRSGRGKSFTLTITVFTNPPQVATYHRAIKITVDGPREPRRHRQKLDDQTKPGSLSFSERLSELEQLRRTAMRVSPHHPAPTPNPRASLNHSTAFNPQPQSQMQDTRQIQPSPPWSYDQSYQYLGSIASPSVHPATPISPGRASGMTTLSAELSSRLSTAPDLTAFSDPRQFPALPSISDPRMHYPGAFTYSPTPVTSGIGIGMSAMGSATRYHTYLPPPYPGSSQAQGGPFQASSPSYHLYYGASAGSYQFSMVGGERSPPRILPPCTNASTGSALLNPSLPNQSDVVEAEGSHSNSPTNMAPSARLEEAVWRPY
# UniProt P26447: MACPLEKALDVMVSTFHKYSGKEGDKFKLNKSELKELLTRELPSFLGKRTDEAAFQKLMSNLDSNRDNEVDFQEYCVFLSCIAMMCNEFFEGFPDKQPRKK
# UniProt Q9NTJ5: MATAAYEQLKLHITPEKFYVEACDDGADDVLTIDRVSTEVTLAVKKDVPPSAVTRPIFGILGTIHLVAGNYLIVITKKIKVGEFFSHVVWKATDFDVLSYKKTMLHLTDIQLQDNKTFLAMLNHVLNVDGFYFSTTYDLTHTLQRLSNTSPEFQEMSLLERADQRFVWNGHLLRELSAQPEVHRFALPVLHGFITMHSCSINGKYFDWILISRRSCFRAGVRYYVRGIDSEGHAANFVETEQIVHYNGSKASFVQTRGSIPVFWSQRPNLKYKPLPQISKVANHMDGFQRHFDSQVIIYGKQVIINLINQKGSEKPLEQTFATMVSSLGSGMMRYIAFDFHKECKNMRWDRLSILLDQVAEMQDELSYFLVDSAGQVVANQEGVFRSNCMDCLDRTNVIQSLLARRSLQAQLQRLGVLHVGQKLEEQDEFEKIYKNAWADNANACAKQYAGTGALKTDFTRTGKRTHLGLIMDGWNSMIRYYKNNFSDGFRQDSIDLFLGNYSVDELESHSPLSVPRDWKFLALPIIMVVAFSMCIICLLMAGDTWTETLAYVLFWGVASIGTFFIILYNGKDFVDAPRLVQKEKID
# UniProt Q96T23: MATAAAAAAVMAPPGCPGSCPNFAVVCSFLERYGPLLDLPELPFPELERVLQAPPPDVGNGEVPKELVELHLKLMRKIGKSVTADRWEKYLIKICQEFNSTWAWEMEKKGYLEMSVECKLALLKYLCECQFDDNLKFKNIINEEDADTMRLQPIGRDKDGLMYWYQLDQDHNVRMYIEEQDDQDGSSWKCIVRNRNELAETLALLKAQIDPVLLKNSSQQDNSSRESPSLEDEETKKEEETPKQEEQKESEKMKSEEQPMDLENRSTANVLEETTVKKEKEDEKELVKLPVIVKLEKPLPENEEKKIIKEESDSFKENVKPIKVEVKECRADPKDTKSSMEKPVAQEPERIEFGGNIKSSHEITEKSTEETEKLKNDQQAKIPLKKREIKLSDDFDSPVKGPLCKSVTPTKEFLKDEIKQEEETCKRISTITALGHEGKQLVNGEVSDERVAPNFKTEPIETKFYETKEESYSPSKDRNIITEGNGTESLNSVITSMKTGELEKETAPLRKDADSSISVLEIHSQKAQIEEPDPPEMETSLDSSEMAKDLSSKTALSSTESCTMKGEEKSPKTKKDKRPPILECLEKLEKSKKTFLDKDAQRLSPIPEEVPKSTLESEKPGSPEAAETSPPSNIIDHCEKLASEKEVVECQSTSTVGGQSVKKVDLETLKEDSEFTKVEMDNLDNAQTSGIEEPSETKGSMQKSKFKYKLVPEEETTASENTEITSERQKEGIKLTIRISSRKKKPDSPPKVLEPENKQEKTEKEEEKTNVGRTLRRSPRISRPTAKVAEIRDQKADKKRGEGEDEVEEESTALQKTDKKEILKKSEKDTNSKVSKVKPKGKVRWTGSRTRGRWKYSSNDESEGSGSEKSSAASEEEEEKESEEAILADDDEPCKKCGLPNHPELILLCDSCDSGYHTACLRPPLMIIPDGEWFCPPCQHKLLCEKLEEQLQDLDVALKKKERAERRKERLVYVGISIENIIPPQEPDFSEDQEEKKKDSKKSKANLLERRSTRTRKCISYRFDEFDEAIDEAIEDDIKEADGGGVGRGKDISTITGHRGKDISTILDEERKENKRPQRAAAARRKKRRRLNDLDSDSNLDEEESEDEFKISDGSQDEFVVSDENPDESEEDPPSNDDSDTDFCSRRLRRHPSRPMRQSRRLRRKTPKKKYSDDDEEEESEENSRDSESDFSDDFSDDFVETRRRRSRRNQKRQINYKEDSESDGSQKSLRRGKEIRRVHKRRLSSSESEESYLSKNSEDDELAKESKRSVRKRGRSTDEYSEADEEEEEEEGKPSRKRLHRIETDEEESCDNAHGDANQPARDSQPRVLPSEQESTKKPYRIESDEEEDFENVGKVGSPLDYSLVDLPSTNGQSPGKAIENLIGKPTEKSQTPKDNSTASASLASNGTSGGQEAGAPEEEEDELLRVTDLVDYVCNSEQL
# UniProt Q5PRF9: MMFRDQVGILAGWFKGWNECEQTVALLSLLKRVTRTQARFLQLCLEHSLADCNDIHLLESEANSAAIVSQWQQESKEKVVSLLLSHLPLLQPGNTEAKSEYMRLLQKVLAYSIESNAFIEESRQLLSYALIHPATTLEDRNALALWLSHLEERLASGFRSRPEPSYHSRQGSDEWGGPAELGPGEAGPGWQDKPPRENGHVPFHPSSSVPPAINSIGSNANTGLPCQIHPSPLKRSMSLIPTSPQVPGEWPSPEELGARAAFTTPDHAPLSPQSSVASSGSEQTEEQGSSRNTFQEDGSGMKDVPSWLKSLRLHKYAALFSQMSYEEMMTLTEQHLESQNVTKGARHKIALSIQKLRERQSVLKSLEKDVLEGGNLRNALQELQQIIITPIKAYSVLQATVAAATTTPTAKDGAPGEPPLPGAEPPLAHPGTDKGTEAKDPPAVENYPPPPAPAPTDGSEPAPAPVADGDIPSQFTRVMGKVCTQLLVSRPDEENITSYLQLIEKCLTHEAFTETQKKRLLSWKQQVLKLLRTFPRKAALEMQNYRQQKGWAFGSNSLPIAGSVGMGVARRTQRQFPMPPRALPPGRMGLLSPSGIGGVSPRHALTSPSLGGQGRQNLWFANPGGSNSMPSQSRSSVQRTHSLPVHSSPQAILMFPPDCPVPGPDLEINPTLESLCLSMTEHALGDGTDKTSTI
# UniProt Q96DX4: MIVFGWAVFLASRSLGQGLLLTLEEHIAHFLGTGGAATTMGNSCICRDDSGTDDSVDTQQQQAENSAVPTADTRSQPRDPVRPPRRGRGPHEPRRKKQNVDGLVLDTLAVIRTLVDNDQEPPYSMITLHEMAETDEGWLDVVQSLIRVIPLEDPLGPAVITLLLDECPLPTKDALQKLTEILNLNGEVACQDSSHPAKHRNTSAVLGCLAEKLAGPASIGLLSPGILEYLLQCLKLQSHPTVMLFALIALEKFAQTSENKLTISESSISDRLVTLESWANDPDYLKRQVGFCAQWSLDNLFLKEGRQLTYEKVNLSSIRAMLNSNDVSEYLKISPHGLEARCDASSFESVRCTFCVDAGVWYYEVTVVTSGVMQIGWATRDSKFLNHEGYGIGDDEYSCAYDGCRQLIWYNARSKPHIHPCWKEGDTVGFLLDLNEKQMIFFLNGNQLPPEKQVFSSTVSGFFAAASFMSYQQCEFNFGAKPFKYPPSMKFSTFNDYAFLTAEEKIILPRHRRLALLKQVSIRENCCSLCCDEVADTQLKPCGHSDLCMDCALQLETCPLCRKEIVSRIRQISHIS
# UniProt Q9HCY8: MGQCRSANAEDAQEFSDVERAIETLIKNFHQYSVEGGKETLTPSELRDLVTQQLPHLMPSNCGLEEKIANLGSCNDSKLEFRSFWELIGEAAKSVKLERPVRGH
# UniProt O75845: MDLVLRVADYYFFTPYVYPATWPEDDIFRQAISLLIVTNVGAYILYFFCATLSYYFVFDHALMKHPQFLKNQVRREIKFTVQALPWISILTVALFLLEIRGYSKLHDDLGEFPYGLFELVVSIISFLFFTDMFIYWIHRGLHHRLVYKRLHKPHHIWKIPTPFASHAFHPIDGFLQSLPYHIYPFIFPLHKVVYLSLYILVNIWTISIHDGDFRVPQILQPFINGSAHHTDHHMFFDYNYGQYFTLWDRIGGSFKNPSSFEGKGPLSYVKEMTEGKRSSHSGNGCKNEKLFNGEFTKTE
# The list shows a part of the results.
# Compound: CC(C)(C)Cn1c(N)nc2ccc(-c3[nH]c(C(C)(C)C)nc3-c3ccc(F)cc3)nc21 [ralimetinib]
# Test: log2 fold change, soluble protein after heating vs DMSO (PISA); higher = thermal stabilisation; K562 cells, 10 uM, 30 min; active = over 0.2 and 3.5 SD of the protein, either way, in both replicates (recomputed)
# How it was run: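 Soluble protein was quantified by TMTpro 16plex LC-MS/MS after channel sums were equalised. It was obtained as the supernatant after 21,000xg for 90 min from pooled aliquots of K562 cells (2×10^6 cells/mL, 10 μM compound, 30 min) heated for 3 min across 48°C-58°C and extracted in PBS with 0.5% NP-40 at 4°C. Thermal stability values are relative to control samples and come from duplicates. They are given as log2 fold changes.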
row,Target,log2 fold change
1,RRP36 (UniProt Q96EU6),inactive: 0.083
2,SCAMP2 (UniProt H3BUB6),inactive: -0.278
3,SDHD (UniProt O14521),inactive: -0.02
4,SCG3 (UniProt Q8WXD2),inactive: 0.061
5,SCYL3 isoform 2 (UniProt Q8IZE3),inactive: -0.043
6,SCAMP2 (UniProt O15127),inactive: -0.019
7,"SDHB, A0A087WXX8",inactive: -0.053
8,RTF2 (UniProt Q9BY42),inactive: -0.022
9,RSRC2 (UniProt Q7L4I2),inactive: 0.012
10,SCAI isoform 2 (UniProt Q8N9R8),inactive: 0.064
11,SCGB1D2 (UniProt O95969),inactive: -0.156
12,RUNX1 isoform 8 (UniProt Q01196),inactive: -0.043
13,SEC22A (UniProt Q96IW7),inactive: -0.085
14,S100A4 (UniProt P26447),inactive: -0.008
15,SACM1L (UniProt Q9NTJ5),inactive: 0.064
16,RSF1 (UniProt Q96T23),inactive: 0.019
17,SAMD4B (UniProt Q5PRF9),inactive: 0.053
18,"SDHB, A0A087WWT1",inactive: -0.139
19,RWDD2B (UniProt P57060),inactive: 0.073
20,RSPRY1 (UniProt Q96DX4),inactive: -0.019
21,S100A14 (UniProt Q9HCY8),inactive: 0.093
22,SC5D (UniProt O75845),inactive: 0.067
23,RSL24D1 (UniProt Q9UHA3),inactive: 0.211

# Quoted from the listing.
# log2 fold change, S100A14 (UniProt Q9HCY8) is entered as inactive: 0.093
# log2 fold change, SC5D (UniProt O75845) is entered as inactive: 0.067
